Results as given in patent publication US6497900B2, “Effervescent base” (priority 1997, dated 2002).
For at least one compound, name, drawing or mass did not settle the structure.

Assay: Breakdown of acid-sensitive active substances in the effervescent system
Assay type: physicochemical
Settings: in the effervescent system according to the invention, also in a stress situation

Compound: CNC(=C[N+](=O)[O-])NCCSCc1ccc(CN(C)C)o1 [ranitidine]
- tendency of active substance to break down and form decomposition products: substantially lower tendency
